Laboratory results from PubChem BioAssay AID540276 (National Center for Advancing Translational Sciences (NCATS), 2011).
Screen size: about 300,000 compounds; about 5,400 (1.8%) were called active. Inconclusive results, whose numbers are uncertain, are shown with a selection of clear calls. The call rests on the fitted dose curve; tested in HEK293 cells. Potencies beside an inconclusive call are fits to weak or partial responses and may not hold up.

experiment: qHTS for inhibitors of binding or entry into cells for Marburg Virus; details: Marburg virus pseudotyped entry inhibition, cell reporter; activity change, negative = inhibition: at 37.8 µM (top of the series) unless noted
On the % scale 0 is the no-effect control and ±100 the full control effect; potency means the concentration at half of the fitted maximal effect.

SMILES | Potency | activity change, negative = inhibition
CC(=O)N1CCN(c2ccc(NC(=O)C(C)Oc3ccc(Cl)cc3Cl)cc2)CC1 (configuration not stated) | inconclusive: 5.01 µM [inhibitor, full curve, poor fit] | 
CSc1ccc(-c2nnn(Cc3ccc(C)cc3)n2)cc1 | inconclusive: 3.55 µM [activator, full curve, poor fit] | 
O=S(=O)(c1ccc(N2CCCC2c2nc3ccccc3s2)nc1)N1CCOCC1 (configuration not stated) | inconclusive: 0.517 µM [inhibitor, partial curve, poor fit] | 
O=C1NC(=O)/C(=C/c2cccc3ccccc23)S1 | inconclusive: 35.5 µM [activator, partial curve, poor fit] | 
Cc1ccnc2ccc(-c3nc4ccccc4o3)cc12 | inconclusive: 5.62 µM [inhibitor, single point] | 
Cc1ccc(C2C(/C=C3/SC(=S)NC3=O)=C(c3cccs3)Oc3ccccc32)cc1 (configuration not stated) | inconclusive: 29.1 µM [inhibitor, single point] | 
O=C(Nc1ccc(OC(F)(F)F)cc1)C1=NCCN1 | inconclusive: 6.31 µM [activator, single point] | 
O=C(Nc1cc(Cl)ccc1N1CCCCC1)c1cccs1 | inconclusive: 28.2 µM [inhibitor, single point] | 
Nc1nonc1C(=O)N1CCCCC1 | inconclusive: 5.62 µM [activator, single point] | 
CCCCC(=O)Nc1cccc(-c2cn3ccccc3n2)c1 |  | inactive: -4.95%
COCCNc1ccc(-c2nc(-c3cccc(C)c3)no2)cc1[N+](=O)[O-] | inconclusive: 11.2 µM [activator, single point] | 
Cc1ccc2nc(-c3ccc(NC(=O)COC(=O)c4cncc(Br)c4)cc3)sc2c1 | inconclusive: 8.91 µM [inhibitor, partial curve] | 
O=C1CN(c2ccccc2)C(=S)N1C(=O)c1ccccc1 | inconclusive: 1 µM [activator, full curve, poor fit] | 
Cc1ccc(S(=O)(=O)Nc2cccc(-c3cn4ccsc4n3)c2)cc1 | inconclusive: 35.5 µM [inhibitor, single point] | 
CCN(CC)c1ccc(NC(=O)CCN2C(=O)c3ccccc3S2(=O)=O)c(C)c1 |  | inactive: 13.5% [at 46.1 µM]
COc1ccc(CCNC(=O)CSCc2nc(-c3ccc(OC)c(OC)c3)oc2C)cc1OC | inconclusive: 0.562 µM [activator, full curve, poor fit] | 
O=S(=O)(CC(CN1CCCC1)N1CCCC1)c1ccc2ccccc2c1 (configuration not stated) | active: 18.3 µM | 
CCOCCCNC(=O)C(NC(=O)c1ccccc1O)c1ccc(Cl)cc1 (configuration not stated) | inconclusive: 0.562 µM [activator, full curve, poor fit] | 
CCOC(=O)c1c(N)c(C#N)c2n1CCCCC2 |  | inactive: -3.5% [at 46.1 µM]
COc1ccc(Nc2nc(C)nc3c2oc2ccccc23)cc1 | inconclusive: 11.2 µM [inhibitor, partial curve, poor fit] | 
Cc1nn(-c2ccccc2)c2sc(C(=O)N3CCOCC3)cc12 | inconclusive: 0.891 µM [activator, single point] | 
COc1ccc(-c2cn3cccnc3n2)cc1Br | inconclusive: 0.562 µM [activator, full curve, poor fit] | 
CCCNS(=O)(=O)c1cc(Br)cc2c1N(C(=O)CC)CC2 |  | inactive: -12%

Looked up above:
For Potency, `COc1ccc(Nc2nc(C)nc3c2oc2ccccc23)cc1` has inconclusive: 11.2 µM [inhibitor, partial curve, poor fit]
For Potency, `O=C(Nc1ccc(OC(F)(F)F)cc1)C1=NCCN1` has inconclusive: 6.31 µM [activator, single point]
For activity change, negative = inhibition, `CCOC(=O)c1c(N)c(C#N)c2n1CCCCC2` has inactive: -3.5% [at 46.1 µM]
For Potency, `O=C1CN(c2ccccc2)C(=S)N1C(=O)c1ccccc1` has inconclusive: 1 µM [activator, full curve, poor fit]
For Potency, `O=S(=O)(c1ccc(N2CCCC2c2nc3ccccc3s2)nc1)N1CCOCC1` (configuration not stated) has inconclusive: 0.517 µM [inhibitor, partial curve, poor fit]

Next results.

SMILES | Potency | activity change, negative = inhibition
O=C(Nc1ncc2c(n1)CC(c1ccco1)CC2=O)c1ccccc1 (configuration not stated) | inconclusive: 10 µM [activator, partial curve, poor fit] | 
CC1(C(O)(C#CCN2CCCCC2)c2ccccc2)CCCC1 (configuration not stated) | inconclusive: 11.2 µM [inhibitor, partial curve, poor fit] | 
O=C1c2ccccc2C(=O)N1/N=C/c1ccc(O)c(O)c1 |  | inactive: -11.7%
O=C(c1cc(-c2cccs2)on1)N1CCc2ccccc2C1 |  | inactive: 13.6%
COc1ccc(N(CC(=O)N2CCN(c3cccc(OC)c3)CC2)S(=O)(=O)c2c(C)noc2C)cc1 |  | inactive: -17.4% [at 46.1 µM]
CCCN(CC(=O)Nc1ccccc1C)C(=O)c1ccc2ccccc2n1 | inconclusive: 12.6 µM [inhibitor, single point] | 
CCNC(=O)CN(c1ccc(C)cc1)S(=O)(=O)c1ccccc1 |  | inactive: -24.6% [at 46.1 µM]
CCS(=O)(=O)Nc1ccc(C2=NN(C(=O)c3ccco3)C(c3ccc(C)cc3)C2)cc1 (configuration not stated) | inconclusive: 29.1 µM [inhibitor, single point] | 
Cc1cccc(CN2C(=O)/C(=C\c3ccc(C(=O)NCCN4CCOCC4)cc3)Sc3ccccc32)c1 | inconclusive: 15.8 µM [inhibitor, partial curve, poor fit] | 
Nc1nc(N)c(N=Nc2ccccc2)c(=O)[nH]1 | inconclusive: 35.5 µM [inhibitor, single point] | 
O=C(NC1CC(=O)N(c2ccc(F)cc2)C1)N1CCN(C(=O)c2ccco2)CC1 (configuration not stated) |  | inactive: 23.3%
CCOC(=O)OC[C@H]1O[C@H](C#Cc2ccc(F)cc2F)C=C[C@H]1OC(=O)OCC | inconclusive: 0.75 µM [activator, single point] | 
CCOC(=O)C1=C(CS(=O)(=O)c2ccc(C)c(C)c2)NC(=O)NC1c1ccccc1OCC (configuration not stated) |  | inactive: -0.551% [at 46.1 µM]
Cc1ccc(/C=N/NC(=S)NC2CCCCC2)o1 | inconclusive: 3.16 µM [activator, partial curve, poor fit] | 
CC(Cc1ccco1)NC(=O)c1cccc(S(=O)(=O)N(C)C)c1 (configuration not stated) | inconclusive: 0.461 µM [activator, full curve, poor fit] | 
Cc1cc(C)cc(N(CC(=O)NC2CCCC2)C(=O)CNC(=O)c2cccs2)c1 | inconclusive: 22.4 µM [inhibitor, single point] | 
CC(C)C(=O)Nc1cccc(C(=O)Nc2nnc(C(C)C)s2)c1 | inconclusive: 3.98 µM [activator, single point] | 
Cc1nc2ccc(Cl)cc2c(=O)n1-c1ccc([N+](=O)[O-])cc1 | inconclusive: 2.82 µM [inhibitor, partial curve, poor fit] | 
CC(C)C(=O)Nc1nnc(SCC(=O)N2C(C)CCCC2C)s1 (configuration not stated) | inconclusive: 20 µM [inhibitor, partial curve, poor fit] | 
Cc1nnn(-c2nonc2N)c1C(=O)N/N=C/c1cccc2ccccc12 | inconclusive: 0.631 µM [activator, full curve, poor fit] | 
Cc1ccc(-c2cc(Cc3ccncc3)c(=O)[nH]n2)cc1 | inconclusive: 0.316 µM [inhibitor, partial curve, poor fit] | 
COc1ccc(NC(=O)C(CC(C)C)NS(=O)(=O)c2ccc3c(c2)oc(=O)n3C)cc1Cl (configuration not stated) |  | inactive: -12.2% [at 46.1 µM]
CCOc1ccccc1NC(=O)CSCC(=O)Nc1ccccc1 | inconclusive: 0.231 µM [inhibitor, partial curve] | 

SMILES | Potency | activity change, negative = inhibition
Cc1[nH]n(-c2nc(-c3cccc([N+](=O)[O-])c3)cs2)c(=O)c1C |  | inactive: -20.5%
c1csc(-c2nnsc2-c2nc3ccccc3[nH]2)c1 |  | inactive: 8.59% [at 46.1 µM]
N#Cc1ccc2c(c1)C[C@]1(c3ccsc3)Oc3c(c(=O)oc4ccccc34)[C@H]2O1 |  | inactive: 5.27% [at 14.2 µM]
Cc1cccc(Nc2cc(=O)n(C)c(=O)[nH]2)c1 |  | inactive: -29.9% [at 46.1 µM]
N[C@@H](CCC(=O)N[C@H](CSN=O)C(=O)NCC(=O)O)C(=O)O | inconclusive: 1 µM [inhibitor, full curve, poor fit] | 
O=C(Nc1ccc(F)c(Cl)c1)C1CCCN1S(=O)(=O)c1ccc(F)cc1 (configuration not stated) |  | inactive: -11.8% [at 46.1 µM]
CC(C)Cc1ccc(C(C)CC2=CCC(CN(C)C)C2=O)cc1 (configuration not stated) | inconclusive: 35.5 µM [inhibitor, single point] | 
CCOC(=O)Cc1[nH]nc2c1C(c1ccsc1)C(C#N)=C(N)O2 (configuration not stated) |  | inactive: -15.5% [at 46.1 µM]
O=C(O)CCN1C(=O)/C(=C/c2ccc(-c3nc4ccccc4s3)o2)SC1=S | inconclusive: 3.98 µM [activator, partial curve] | 
CCOC(=O)c1[nH]c(C)c(C(=O)N2CCc3ccccc32)c1C | inconclusive: 0.199 µM [inhibitor, full curve, poor fit] | 
COc1ccc(OC)c(N/C=C/C(=O)c2ccc(OC)c(OC)c2)c1 |  | inactive: 10.6%
CCCCn1nnnc1SCC(=O)c1ccccc1F | inconclusive: 5.17 µM [activator, full curve, poor fit] | 
COc1cc(C2C(C#N)=C(N)Oc3n[nH]c(-c4ccncc4)c32)cc(OC)c1OC (configuration not stated) | inconclusive: 6.31 µM [inhibitor, partial curve, poor fit] | 
CN1CCN(c2ccccc2NC(=O)c2ccc(-c3ccc(Cl)cc3Cl)o2)CC1 | inconclusive: 23.1 µM [inhibitor, partial curve, poor fit] | 
O=C(CCOc1ccccc1)NNC(=O)c1ccccc1 | inconclusive: 0.316 µM [inhibitor, full curve, poor fit] | 
Cc1ccnc(NC(=O)CCC(=O)N(CC(=O)NC(C)(C)C)c2ccc(F)c(Cl)c2)c1 | inconclusive: 6.31 µM [inhibitor, full curve] | 
CCOC(=O)C1=NNC2C(=O)N(Cc3ccccc3)C(=O)C12 (configuration not stated) | inconclusive: 2.51 µM [activator, partial curve] | 
N#C/C(=C\c1ccccc1C(F)(F)F)C(=O)Nc1ccccc1F | inconclusive: 15.8 µM [activator, partial curve, poor fit] | 
Cc1cc(-c2onc(C)c2C(=O)Nc2ccc(C(F)(F)F)cc2)no1 |  | inactive: 0.249% [at 46.1 µM]
COc1ccc(-c2nc(-c3ccccc3)nc(N3CCN(C)CC3)c2C#N)cc1 | inconclusive: 2.91 µM [inhibitor, partial curve, poor fit] | 
O=C(NCCS(=O)c1ccc(Cl)cc1)c1cccc(Cl)c1 (configuration not stated) | inconclusive: 11.2 µM [inhibitor, partial curve, poor fit] | 
